# Measurements reported in PubChem BioAssay AID602196 (INSERM, 2012)
# Purpose: 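Knock-downs that protect lung cancer cells from cisplatin or sensitise them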
# Cell system: human A549 lung cancer cells
# Knock-down reagent: siRNA pair against human genes
# Timing: 48 h transfection before cisplatin; time from cisplatin to read-out not stated
# Challenge: cisplatin at a dose killing half of control-siRNA cells; exact dose and duration not given
# Measurement: 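Shift in cisplatin death relative to control siRNA, from -50 (all cells die) to +50 (no cells die); siRNAs harmful on their own scored 0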
# Reading the numbers: two-siRNA summed score (-2 to +2): higher = both siRNAs protect from cisplatin killing; -2 means both sensitise; mean protection from cisplatin (shift in death) and protection from cisplatin (shift in death), siRNA C and protection from cisplatin (shift in death), siRNA D: higher = protection from cisplatin killing
# Call rule: 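Each siRNA scores 0 if harmful alone by LDH or WST-1, otherwise +1 if it reduces and -1 if it increases cisplatin killing; a gene is active when both siRNAs agree (sum +2 or -2)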
# Calls: active = both siRNAs shift cisplatin killing the same way; inactive = no consistent shift, or siRNA harmful alone
# The deposit covers about 23,000 reagents; shown is a random part of them. Over the whole deposit, 455 (2%) got an active call. 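Active includes both protection and sensitisation; some change values fall well beyond the stated -50 to +50 range.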 Not given: the amount of reagent.
target,two-siRNA summed score (-2 to +2),mean protection from cisplatin (shift in death) (%),"protection from cisplatin (shift in death), siRNA C (%)","protection from cisplatin (shift in death), siRNA D (%)",call
STKLD1,0,-14,-15.8,-12.1,inactive
ACRBP,0,-0.5,10.2,-11.2,inactive
LOC389240,0,1.8,-5.2,8.8,inactive
FCRL2,0,-1.1,-5.3,3.1,inactive
NUP155,0,3.1,1.3,4.8,inactive
RAB5B,0,-5.8,-0.9,-10.7,inactive
ADAM8,1,17.7,24.6,10.7,inactive

Reformatted: 2 of the entries above
| target | two-siRNA summed score (-2 to +2) | mean protection from cisplatin (shift in death) (%) | protection from cisplatin (shift in death), siRNA C (%) | protection from cisplatin (shift in death), siRNA D (%) | call |
| --- | --- | --- | --- | --- | --- |
| FCRL2 | 0 | -1.1 | -5.3 | 3.1 | inactive |
| NUP155 | 0 | 3.1 | 1.3 | 4.8 | inactive |

Continued.
target,two-siRNA summed score (-2 to +2),mean protection from cisplatin (shift in death) (%),"protection from cisplatin (shift in death), siRNA C (%)","protection from cisplatin (shift in death), siRNA D (%)",call
ARHGEF12,1,7.3,16.9,-2.3,inactive
CLN3,0,-4.5,-2.2,-6.8,inactive
C2CD4B,1,17.3,22.2,12.5,inactive
PPIP5K2,0,6.8,7.1,6.5,inactive
LOC391655,0,8.7,0.5,16.8,inactive
OR5M3,0,8.8,5.3,12.3,inactive
CEACAM20,1,5.5,21.2,-10.3,inactive
HSD17B1,0,-7.2,-4.3,-10,inactive
EXOSC2,1,8.7,18.5,-1.1,inactive
RAB11FIP1,0,-7.1,-4.7,-9.6,inactive
RAB29,0,-1.6,-11.8,8.6,inactive
BMF,0,-5.2,-3.9,-6.5,inactive
MPPE1,1,16.6,20,13.3,inactive
PRKAA1,1,17.6,24.6,10.7,inactive
LOC340260,0,6.1,14.8,-2.5,inactive
COPB2,0,7.9,10.3,5.5,inactive
